From ChEMBL document CHEMBL3988442, “University of Dundee, Small-Polar-MMV Screening Library” (2021).

Each number is a percent effect as filed. The controls that fix the scale are not given in the record; negative values are as filed. The compounds are a random part of those screened.

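Whole-parasite assay of Trypanosoma brucei over 72 hours; the read-out is not stated. Concentration: 30 µM. Higher reads as stronger inhibition (inferred: compounds with an IC50 in retests scored well above the rest). Values scatter widely below zero; nearly all retest evidence comes from the higher of the two concentrations used. About 64,000 compounds were tested under these conditions; 1.5% (about 940) showed 50% or more at least once.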

| SMILES | Percent Effect |
|---|---|
| `CCc1n[nH]c(C2CN(CC(=O)NCCc3ccsc3)CCO2)n1` (centres undefined) | -72.34 |
| `[H][C@@]12CCC(=O)N(CCN)[C@]1([H])CCN(Cc1ccc3occc3c1)C2` | 20.44 |
| `CCC1CN(CC(=O)NCCN2CCCCCC2)c2ccccc2S1` (centres undefined) | 14.24 |
| `CSc1ncc(C(=O)N2CCN(c3ccccc3C)CC2C)cn1` (centres undefined) | -20.66 |
| `O=C(O)[C@@H]1CN(Cc2ccc3nsnc3c2)C[C@H]1c1cccnc1` | -42.6 |
| `CCn1ccnc1CN1CCN(CCc2ccncc2)CC1C` (centres undefined) | -10.32 |
| `CC(C)CC(NC(=O)c1cccc(F)c1F)C(=O)Nc1cc[nH]n1` (centres undefined) | -23.18 |
| `Cn1c(N2CCOCC2)nc2cc(C(=O)N[C@@H]3CC[C@@H](N)C3)ccc21` | 0.205 |
| `CN1CCN(CCNC(=O)c2sccc2C2CC2)CC1` | -3.808 |
| `CN(C)C(C(=O)N1CC(Oc2ccccc2F)C1)c1ccccc1F` (centres undefined) | -6.34 |
| `[H][C@]12CC[C@]([H])(CN(Cc3cscn3)C1)N(Cc1c(C)noc1C)C2=O` | -15.05 |
| `O=C(O)C(F)(F)F.c1ccn(Cc2noc3c2CN(Cc2ccsc2)CC3)c1` | -32.28 |
| `Cc1cccc(OC2CCN(c3ncc(C#N)cc3Cl)CC2)n1` | 2.665 |
| `Cc1cc(CN2CCN(C(C)C)C(CCO)C2)[nH]n1` (centres undefined) | -38.64 |
| `CCN(C)C(=O)c1cccc(C(=O)N(C)Cc2cccc(O)c2)c1` | -22.07 |
| `CC(=O)c1cccc(OCCCC(=O)N(C)Cc2cccc(O)c2)c1` | 2.732 |
| `Cn1cncc1CN1CCCC1c1cncc(Oc2ccc(Cl)cc2)n1` (centres undefined) | -33.18 |
| `Cc1noc(C2CCCCN2C(=O)NCc2ccco2)n1` (centres undefined) | -30.12 |
| `Cc1ccc2c(n1)N(CC(C)C)CCN(S(C)(=O)=O)C2.O=C(O)C(F)(F)F` | -36.66 |
| `Cc1nc(C)n(CC2CCCN2CC(=O)NCCc2cccs2)n1` (centres undefined) | -1.501 |
| `Cn1cc(S(=O)(=O)N(Cc2ccc(F)cc2F)C2CC2)cc1C(N)=O` | -4.363 |
| `C1CN(c2nc(C3CC3)ns2)CCS1` | -51.48 |
| `Cc1ccccc1CS(=O)(=O)c1nnc(N2CCOCC2)s1` | -0.3446 |
| `c1ccc(-n2ccc(CN3CCCC3Cn3cccn3)n2)cc1` (centres undefined) | 99.68 |
| `CN(CCC(F)(F)F)C(=O)C1CCCN1C(=O)OC(C)(C)C` (centres undefined) | -59.49 |
| `CCNC(=O)C(C)NC(=O)Nc1ccccc1Cl` (centres undefined) | -57.64 |
| `C[C@H](O)CNc1cc(-c2ccccc2)ncn1` | -21.97 |
| `CN(C)S(=O)(=O)N1CCCC(CCC(=O)Nc2ccc(Cl)cc2)C1` (centres undefined) | -6.796 |
| `Cn1cc(C(=O)Nc2ccc3c(c2)N(C(=O)c2ccco2)CC3)nn1` | -10.49 |
| `O=C(O)C1(Cc2ccc(Cl)cc2)CCN(c2ncccc2F)CC1` | -55.18 |
| `Cc1ccc(C)c(OCC(O)Cn2ncc3cnn(C)c(=O)c32)c1` (centres undefined) | 12.82 |
| `Cc1cc(NCCNS(=O)(=O)c2cn(C)nc2C)c2ccccc2n1` | -3.384 |
| `Cc1nnn2c1COCC(CNC(=O)c1ccnnc1)C2` (centres undefined) | -59.88 |
| `O=C(NC1CCN(c2ccccc2OC(F)F)C1)c1cccnc1` (centres undefined) | -6.694 |
| `O=C(NCCC1CCN(CC(F)(F)F)CC1)C1COCCO1` (centres undefined) | -7.918 |
| `O=C(Nc1cc(CSCCO)ccn1)c1cc2ccccc2[nH]1` | 8.132 |
| `CC(C)N1CCC(CNC(=O)CCc2cc(F)ccc2F)C1` (centres undefined) | -8.688 |
| `O=C(N[C@@H]1CNCCC[C@H]1O)c1ccc(OCc2ccccc2)cc1` | -1.175 |
| `O=C(O)C(F)(F)F.O=C(O)C(F)(F)F.[H][C@@]12CN(CC3CCOCC3)CCO[C@]1([H])CN(Cc1ccc(C)s1)C2` | -62.9 |
| `CCc1ncc(C(=O)N2CC(N3CCCCC3)C2)cn1` | -80.91 |
| `CCc1nc(CN2CCCC(Cn3nc(C)nc3C)C2)no1` (centres undefined) | 12.92 |
| `COc1ccccc1OC1(C(=O)O)CCN(c2cc(C)nc(C)c2)CC1` | -37.67 |
| `Cc1cc(C)c(CCNC(=O)NCCCC(N)=O)c(C)c1` | -1.869 |
| `Cc1cnn(CC2CCCCN2CC(=O)Nc2nncs2)c1` (centres undefined) | 2.025 |
| `CCc1ncncc1C(=O)NCCNS(=O)(=O)c1ccc(C)cc1` | -4.584 |
| `Cn1c(NC(=O)CCS(=O)(=O)C2CCCC2)nc2cc(Cl)ccc21` | -19.14 |
| `O=C(NC1CC1)N1CC[C@H](OCC2CC2)[C@@H]1Cc1cccnc1.O=C(O)C(F)(F)F` | -4.987 |
| `CSCc1cc(F)ccc1CNCc1ncc[nH]1` | -17.63 |
| `Cn1cc(CNC2CCOCC2)c(-c2cc3ccccc3o2)n1` | 0.8855 |
| `N#Cc1ccc(CN2CCCN(CCCn3cncn3)CC2)cc1` | -12.98 |
| `CN(C)C1CC2(CCN(C(=O)NC3CC3)CC2)c2ccccc21.O=C(O)C(F)(F)F` (centres undefined) | -15.3 |
| `Cc1cc(C(=O)O)cc(S(=O)(=O)Nc2ccc3c(c2)OCCO3)c1C` | 4.286 |
| `Nc1cc(C(=O)N2CCCC(C(=O)CCc3ccccc3)C2)ccn1` (centres undefined) | 6.72 |
| `Cl.Cl.O=C(NC[C@H]1OC[C@@H](NC2CCNCC2)[C@@H]1O)C1CCCC1` | -6.766 |
| `COC(=O)c1cccc(S(=O)(=O)N2CSCC2C(=O)N(C)C2CC2)c1` (centres undefined) | -21.89 |
| `CCn1nc2c(cc1=O)CN(Cc1cc(C)on1)CC2` | -10.3 |
| `CCc1nc(C)c(C(=O)NCCNc2cnccn2)s1` | 6.636 |
| `CC(C)c1nccc(C2CC(=O)Nc3n[nH]c(C4CCC4)c32)n1` (centres undefined) | -12.66 |
| `CS(=O)(=O)N1CCCC(Cc2cnc(Br)cn2)C1` (centres undefined) | -39.62 |
| `CCOn1c(SC(C)C)nc2ccccc2c1=O` | -62.52 |
| `CCc1ncc(C(=O)N(CC)CCOC)cn1` | 8.301 |
| `Cc1cnc(CNC(=O)NCc2cccnc2N(C)C)s1` | 1.031 |
| `O=c1[nH]nc2c(S(=O)(=O)N3CCN(c4ccc(F)cc4)CC3)cccn12` | -53.63 |
| `N#Cc1cccnc1OC1CCN(C(=O)NCc2ccccc2)CC1` | -73.5 |
| `CNc1cncc(C2CCCN2Cc2ccccc2OCC(=O)O)n1` (centres undefined) | 10.94 |
| `CN1CCOC(CN(C(=O)CCc2ccco2)c2nccs2)C1` (centres undefined) | -9.394 |
| `c1cnc(N2CCCC3(CCN(Cc4ccsc4)C3)C2)nc1` (centres undefined) | 44.57 |
| `O=C(O)C(F)(F)F.[H][C@@]12CCCO[C@]1([H])[C@@H](NC(=O)C1CC1)CN2Cc1ccsc1` | -14.16 |
| `Cc1csc(N(C)C(=O)C2CC(=O)N(c3ccccc3Cl)C2)n1` (centres undefined) | -10.87 |
| `NC(=O)CN1CCCN(C(=O)Cc2ccc3ccccc3c2)CC1` | -55.01 |
| `Cc1cc(-c2noc(C3CCS(=O)(=O)C3)n2)ccc1F` (centres undefined) | -8.323 |
| `Cc1oc(C)c(C(=O)NCc2cccc(NC(=O)CN(C)C)c2)c1C` | 0.05367 |
| `[H][C@]12CCN(C(=O)c3ccoc3)[C@@]1([H])CC[C@H](COCC1CCOCC1)O2` | -24.67 |
| `CCN1CCC2(CC1)CN(C(C)=O)c1ccc(C)cc12` | -10.13 |
| `COc1ccc(C)cc1NC(=O)c1coc(C)n1` | -0.3568 |
| `O=C(O)c1cnc2c(Br)cccc2c1O` | -14.73 |
| `CN1CCN([C@@H]2CCN(Cc3cccc(-n4cccn4)c3)C[C@H]2O)CC1` | -46.26 |
| `Cc1nn(CC(=O)N2CCN(Cc3cccnc3)CC2)c(C)c1Cl` | 2.93 |
| `c1cnn(C2CN(c3ncnc4[nH]ccc34)C2)c1` | 5.387 |
| `Cc1ccccc1CS(=O)(=O)CC(=O)NC1CCCCNC1=O` (centres undefined) | 29.53 |
| `Cc1ccc(CNCc2cccc3cccnc23)c(OC2CCOC2)c1` (centres undefined) | 98.1 |

Once more, the final 10:

SMILES	Percent Effect
Cc1oc(C)c(C(=O)NCc2cccc(NC(=O)CN(C)C)c2)c1C	0.05367
[H][C@]12CCN(C(=O)c3ccoc3)[C@@]1([H])CC[C@H](COCC1CCOCC1)O2	-24.67
CCN1CCC2(CC1)CN(C(C)=O)c1ccc(C)cc12	-10.13
COc1ccc(C)cc1NC(=O)c1coc(C)n1	-0.3568
O=C(O)c1cnc2c(Br)cccc2c1O	-14.73
CN1CCN([C@@H]2CCN(Cc3cccc(-n4cccn4)c3)C[C@H]2O)CC1	-46.26
Cc1nn(CC(=O)N2CCN(Cc3cccnc3)CC2)c(C)c1Cl	2.93
c1cnn(C2CN(c3ncnc4[nH]ccc34)C2)c1	5.387
Cc1ccccc1CS(=O)(=O)CC(=O)NC1CCCCNC1=O (centres undefined)	29.53
Cc1ccc(CNCc2cccc3cccnc23)c(OC2CCOC2)c1 (centres undefined)	98.1